# Library screen at single concentrations

From ChEMBL document CHEMBL3988442, “University of Dundee, Small-Polar-MMV Screening Library” (2021).

A: 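Whole-cell growth test on Mycobacterium tuberculosis, read after 4 days in a medium based on cholesterol and the lipid DPPC; the read-out is not stated. Concentration: 50 µM. Direction is inferred from retests: higher values go with more growth inhibition. About 69,000 compounds were tested under these conditions; 0.54% (about 370) showed 50% or more at least once.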
B: 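Growth of Mycobacterium tuberculosis over 3 days (7H9 medium with glucose and tyloxapol); the read-out is not stated. Concentration: 50 µM. Higher reads as more growth inhibition (inferred: compounds with an IC50 in retests scored well above the rest). Of about 69,000 compounds tested this way, about 760 (1.1%) reached 50% or more in at least one test.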

Results are given as percent effect. How 0% and 100% were set is not recorded. Most values in the screen are low, and negative values occur. This is an unselected part of the compounds tested. Two or more numbers in one place are separate tests of the same structure; such repeats can differ widely.

| # | SMILES | A | B |
|---|---|---|---|
| 1 | `O=C(O)C(F)(F)F.[H][C@]12CCN(C(=O)c3ccc(OC)cc3)CC[C@@]1([H])S(=O)(=O)CCN2C` | 3.189% and -13.47% | -14.84% and 1.228% |
| 2 | `Cc1noc(C(C)C)c1C(=O)NCC(c1cccc(F)c1)N(C)C` (stereo not drawn) | 22.34% | 2.944% |
| 3 | `CC(C)(NS(C)(=O)=O)c1nc(-c2ccc(F)c(F)c2)no1` | -6.421% | 27.33% |
| 4 | `Cc1ccccc1C1(C(=O)N2CCCC(n3cncn3)C2)CC1` (stereo not drawn) | 0.05526% | 0.7561% |
| 5 | `CS(=O)(=O)NCC1CCCN(C(=O)c2ccco2)C1` (stereo not drawn) | -14.19% | 2.951% |
| 6 | `Cn1cc(-c2nc(C3CCN(S(C)(=O)=O)CC3)cc3c2ncn3C)cn1` | -20.25% | -34.74% and -7.249% |
| 7 | `Cc1nc(N(C)C2CCCCC2)ncc1C(C)NC(=O)c1cccnc1` (stereo not drawn) | -0.4701% and 3.314% | 3.831% and 11.52% |
| 8 | `O=C(NCCc1cccnc1)C1CCCN(Cc2ccco2)C1` (stereo not drawn) | 4.966% and -29.46% | -30.27% |
| 9 | `CCn1cc(CN2CCC(CNC(C)=O)CC2)cc1C#N` | -17.25% | -48.27% |
| 10 | `Cc1cccc(C)c1OCCNC(=O)C[S+]([O-])C1CCCC1` (stereo not drawn) | -10.44% | -6.296% |
| 11 | `COc1c(C2CCCN2C(=O)c2ccnc(C)n2)c(C)nn1C` (stereo not drawn) | -22.03% | -5.037% |
| 12 | `COc1ccc2c(ccn2CCCN)c1.O=C(O)C(=O)O` | 14.16% | 21.83% |
| 13 | `O=C(c1ccccn1)N1CCc2ncnc(-c3ccncc3)c2CC1` | -15.04% | -47.03% |
| 14 | `CCC(CN1CCCCC1)NC(=O)C1(c2ccc(F)cc2)CC1.O=C(O)CC(O)(CC(=O)O)C(=O)O` (stereo not drawn) | -8.56% and 2.41% | -9.226% |
| 15 | `CNc1ncc(CN(C)c2nc(C3CCCC3)nc3c2cnn3C)cn1` | -3.87% | -23.71% |
| 16 | `O=C(NC1CC2(CCN(CCO)CC2)c2ccccc21)c1ccno1.O=C(O)C(F)(F)F` (stereo not drawn) | -12.59% | -3.393% and -24.37% |
| 17 | `O=C(O)C(F)(F)F.[H][C@@]12C[C@@H](C(=O)NC(C)C)C[C@@]1([H])N(Cc1ccc(OC)cc1)CCO2` | 10.82% | 25.09% and -2.204% |
| 18 | `CCc1ncncc1C(=O)N1CCN(Cc2cscn2)CC1` | -11.52% | 12.85% |
| 19 | `COCC(=O)NCc1cc(=O)n2c(n1)CN(C)CCC2.O=C(O)C(F)(F)F` | -6.759% | 0.9621% |
| 20 | `Cc1cc2c(cc1NC(=O)NCC(C)C)OCO2` | 13.95% | -22.19% and -1.959% |
| 21 | `O=C(O)C(F)(F)F.O=C(O)C(F)(F)F.[H][C@]12C[C@@H](Cn3cccn3)N(c3nccs3)[C@@]1([H])CCN(C(=O)CC)C2` | -27.84% | -33.56% |
| 22 | `OC(CN(Cc1ccccc1)Cc1cscn1)c1ccco1` (stereo not drawn) | -3.652% | -7.819% |
| 23 | `CCCn1nc(C(=O)NCCc2nnc3n2CCC3)ccc1=O` | 0.865% and -2.36% | 9.949% |
| 24 | `CN(c1cccc2ccccc12)S(=O)(=O)c1cc(C(=O)O)cs1` | -3.418% | 1.887% |
| 25 | `O=C(c1ccc2c(c1)OCO2)N1C[C@@H](CN2CCCCC2)[C@@H](CO)C1` | -7.389% and -0.5319% | -2.863% |
| 26 | `Cc1cc(C(=O)N2CCCC2c2nnc3n2CCCCC3)no1` (stereo not drawn) | -24.32% | -2.133% and -28.46% |
| 27 | `CC(Cn1ccnc1)NC(=O)N(C)Cc1ccsc1` (stereo not drawn) | 13.64% | 32.71% |
| 28 | `COCCNCc1ccc(OCC(=O)NC(C)(C)C)cc1` | -32.61% | -41.54% |
| 29 | `Cc1ccc(C)c2c(O)cc(CN3CCC(c4nncn4C)CC3)nc12` | -19.06% | -12.07% |
| 30 | `O=C(NCCc1ccccn1)c1n[nH]c2c1CCC2` | 2.014% | 9.295% and 9.222% |
| 31 | `CC(NC1(CNS(C)(=O)=O)CCCC1)c1ccccc1` (stereo not drawn) | -7.426% | -4.499% and -4.935% |
| 32 | `COc1ccc(OC)c(C(C)NC(=O)Nc2nnc(C)s2)c1` (stereo not drawn) | -11.18% | -5.451% and -19.08% |
| 33 | `CCc1oc(C(=O)N(C)Cc2nonc2C)cc1CN(CC)CC` | -7.657% | 3.857% |
| 34 | `CO[C@H]1CN(C(C)C)C[C@@H]1NC(=O)c1cc(COc2ccccc2)[nH]n1` | -9.395% | -11.25% |
| 35 | `Cl.O=C(N1CCCC1)N1CCc2c(CNc3ncccn3)cncc2C1` | -3.516% | -6.152% and 0.2256% |
| 36 | `COCCN1CCc2c(c(COc3cccnc3)nn2C)C1.O=C(O)C(F)(F)F.O=C(O)C(F)(F)F` | 5.276% | 26.53% |
| 37 | `Cc1cc(C)n(CC2CCCN2C(=O)c2cn[nH]c2C)n1` (stereo not drawn) | -22.93% | -43.72% |
| 38 | `CCN(Cc1ccc(F)c(F)c1)Cc1nc2c(cnn2C)c(=O)[nH]1` | -10.13% | 11.71% |
| 39 | `CNC(=O)C1CCCN(C(=O)c2cncs2)C1` (stereo not drawn) | -19.4% and -19.85% | -2.89% |
| 40 | `Cc1noc(C)c1CNC(=O)NCCC(=O)N1CCCc2ccccc21` | -14.56% | 10.51% |
| 41 | `CN(Cc1ccc(Cl)s1)C(=O)NCc1nnc2n1CCC2` | -5.274% | -16.34% |
| 42 | `[H][C@@]12CC(C)=CC[C@]1([H])CN(C(=O)c1ccnc(CCC)c1)C2` | 35.61% | 53.7% |
| 43 | `O=C(c1cccc2c1OCO2)N1CCCC1c1noc(C2CC2)n1` (stereo not drawn) | 16.79% | 22.86% |
| 44 | `[H][C@@]12CCN(Cc3ccoc3)C[C@@]1([H])O[C@H](c1ccnc(C(C)C)n1)C2` | -3.809% | 7.971% |
| 45 | `CN1CCC(c2nnc(CN3CCCC3)n2C2CC2)CC1` | -23.52% | 11.5% |
| 46 | `Cc1ccc(OCC(=O)NCc2ccco2)nc1` | -12.69% and 6.189% | 7.529% |
| 47 | `CSC(C)(C)CNC(=O)NC(c1nnc2n1CCC2)C(C)C` (stereo not drawn) | 16.08% | -6.748% |
| 48 | `[H][C@]12CCN(C(=O)Cc3cccc(OC)c3)CC[C@@]1([H])S(=O)(=O)N(CC)C2` | 10.43% | 22.8% |
| 49 | `CN(Cc1ccncc1)C1CC2(CCN(c3ncccn3)CC2)C1.O=C(O)C(F)(F)F.O=C(O)C(F)(F)F.O=C(O)C(F)(F)F` | 0.7576% | 28.24% |
| 50 | `COC(=O)CCC(=O)N1CCCC2(CCCN2Cc2cccc(F)c2)C1.O=C(O)C(F)(F)F` (stereo not drawn) | -6.711% | 10.62% |
| 51 | `CC(C)Cc1nc(-c2ccnc(N3CCNCC3)n2)no1.Cl.Cl` | -7.076% | -11.53% and 8.527% |
| 52 | `CC(C)OCCCNC(=O)c1c(-n2cnnn2)sc2c1CCCC2` | -10.87% | -10.6% |
| 53 | `O=C(O)C(F)(F)F.[H][C@@]12CCN(c3ccc(C)nn3)C[C@]1([H])O[C@H](C(=O)N1CCOCC1)C2` | -11.34% | -21.05% |
| 54 | `O=c1oc(-c2ccc(F)cc2)nn1CN1CCCCC1` | -5.449% | 2.667% |
| 55 | `CC(=O)N1CCC2(C1)CN(C(=O)C1CCOC1)C2` (stereo not drawn) | 12.83% | 1.364% |
| 56 | `CC(C(=O)N1CCc2sccc2C1)N1CCCN(C2CC2)CC1` (stereo not drawn) | -1.284% | -12.17% |
| 57 | `Cc1nn(C)cc1-c1cc(C(F)(F)F)nc(NC2CCN(C)CC2)n1` | 6.221% | 24.75% and 17.99% |
| 58 | `Cc1cc(C)n(CC2CCCN2Cc2ccc(F)cc2C#N)n1` (stereo not drawn) | 15.28% | -7.882% |
| 59 | `Cc1cc(CN2Cc3ccccc3CC2c2nnc(C)o2)on1` (stereo not drawn) | -16.98% | 24.41% |
| 60 | `[H][C@]12CNC[C@@]1(C(=O)NCc1cc(C)n[nH]1)CN(C(=O)COC)C2` | -16.88% and -3.809% | -4.268% |
| 61 | `CCN(CC1CCOC1)C(=O)c1cc(OC)c2c(c1)OCCO2` (stereo not drawn) | 2.886% | 24.57% |
| 62 | `CCc1cc(C(=O)NCC2CCN(Cc3cccc(C)n3)C2)on1` (stereo not drawn) | -0.1856% | -0.1763% |
| 63 | `CC(C)C(C)NC(=O)CN1CCSCC1` (stereo not drawn) | 0.837% | -7.682% |
| 64 | `O=C(c1ccoc1)N1CCC2(CC1)COC(COCc1ccccn1)C2` (stereo not drawn) | -3.779% and -19.43% | -8.219% and -41.24% |
| 65 | `CCOC(=O)NCCC(=O)NC(C)(C)c1ccc2c(c1)OCCO2` | -13.72% | 0.7554% |
| 66 | `COc1ccc(C(C)N2CCC(NS(C)(=O)=O)CC2)cc1Cl` (stereo not drawn) | -6.81% | -56.81% |
| 67 | `c1cnnc(NCC2CN(Cc3cccc4c3OCCO4)CCO2)c1` (stereo not drawn) | -7.484% | 10.93% |
| 68 | `CCOc1cc(C(=O)N2CCCC2)cc2occc12` | 3.992% | -1.141% |
| 69 | `CNc1cc(C(=O)N2CCC3(CC2)Nc2ccccc2NC3=O)ccn1` | 6.815% and -4.066% | 23.01% |
| 70 | `CCC(Nc1nccc(C2CCCC2)n1)c1ccncc1` (stereo not drawn) | -7.359% and 3.356% | 4.318% and 9.881% |
| 71 | `CCc1ccc(C(COC)NC(=O)c2ccc(O)nc2)o1` (stereo not drawn) | -8.574% and -15.39% | -3.806% and 4.45% |
| 72 | `O=C(O)C(F)(F)F.[H][C@@]12OCCN(Cc3ccc(F)cc3)[C@@]1([H])CC[C@H]2OC` | -9.886% | -15.04% |
| 73 | `O=C1CCNc2ncc(-c3ccccc3Cl)cc2CN1C1CC1` | 8.633% | 35.5% |
| 74 | `CN1CCN(C(=O)c2cccc(S(=O)(=O)NCC3(C)COC3)c2)CC1` | 24.47% | 8.669% |
| 75 | `COCCn1cc(NCc2c[nH]nc2C(C)(C)C)cn1` | 3.731% and 1.702% | -7.952% |
| 76 | `Oc1ccccc1CN1C[C@H](O)C[C@H]1c1nc(Cc2ccccc2)no1` | 12.2% | 7.238% and 16.49% |
| 77 | `O=C(C1=CC2(CCNCC2)c2ccccc21)N1CCCC1` | 11.67% | -5.2% |
| 78 | `O=C(c1ccncc1)N1CCC2(CC1)CC(Oc1cccnc1)CO2` (stereo not drawn) | -10.18% | -6.286% |
| 79 | `CNc1ncc(C(=O)N2CC[C@@](O)(C3CCOCC3)[C@H](C)C2)cn1` | -5.564% and -8.099% | -7.666% |
| 80 | `CC(C)n1cnc(-c2nc(C(=O)N3CCN(C)CC3)c3ccccn23)c1` | -0.7073% | 3.323% and 1.476% |
| 81 | `CC(CNC(=O)NCc1ccc2c(c1)OCO2)CC1(C)OCCO1` (stereo not drawn) | 5.802% | 16.33% |
| 82 | `Cc1nn(C)c2c(=O)n(CC(=O)NC3CCCCC3)ccc12` | 19.1% | 14.66% |
| 83 | `COc1cc(I)c(Cl)cc1C(=O)N(C)CC(C)(C)O` | -4.002% | -21.79% |
| 84 | `[H][C@]12CC[C@]([H])(CN(Cc3ccc(Cl)cc3)C1)N(Cc1c(C)noc1C)C2=O` | -47.07% | -37.98% |

For reference, 4 entries once more:

{"smiles": "CC(C)n1cnc(-c2nc(C(=O)N3CCN(C)CC3)c3ccccn23)c1", "A": -0.7073, "B": "3.323 and 1.476"}
{"smiles": "CN(Cc1ccncc1)C1CC2(CCN(c3ncccn3)CC2)C1.O=C(O)C(F)(F)F.O=C(O)C(F)(F)F.O=C(O)C(F)(F)F", "A": 0.7576, "B": 28.24}
{"smiles": "CO[C@H]1CN(C(C)C)C[C@@H]1NC(=O)c1cc(COc2ccccc2)[nH]n1", "A": -9.395, "B": -11.25}
{"smiles": "CNC(=O)C1CCCN(C(=O)c2cncs2)C1", "stereo": "stereo not drawn", "A": "-19.4 and -19.85", "B": -2.89}